Reference: PubChem BioAssay AID328 (DTP/NCI, 2004)
The list is a part of this screen's results and no random one: it is rich in T/C values a quarter to a half above the control, in often repeated tests (any T/C) and in doses without a T/C. Further doses and runs are listed elsewhere. T/C: endpoint of the treated group in % of that of the vehicle group. Some entries give survivors of the animals treated and no T/C: the source holds a T/C of zero for them, seemingly a mark for toxic or unscored doses. Some doses without a T/C left all or most animals alive at the check, yet need not have been tolerated: survival well below the control is almost never listed, so the zero probably covers shortened survival too. Counts of survivors are from the toxicity check (mostly the fifth day) where no day follows; animals may have died later. Schedule codes are those of the source, taken here to give the interval after Q, in days (D) or hours (H), and the number of doses after X. Some entries hold several experiments; the values are given in rising order. For survival time, this PubChem deposit counts one and a half times the control or more as active, and values a quarter to a half above the control carry no call in these data; other NCI protocols may use other cut-offs.

System: BDF1 mice, P388 leukemia ip, median survival T/C
Test: NCI In Vivo Anticancer Drug Screen. Data for tumor model P388 Leukemia (intraperitoneal) in B6D2F1 (BDF1) mice
Details: T/C endpoint: median survival time, higher T/C = longer survival
How it was run: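 In tumour-bearing mice, survival after compound treatment is set against the vehicle group and given as a quotient.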

[1] = dose: 100.0 mg/kg/injection, schedule: Q01DX009 (ip), vehicle: saline with Tween-80
[2] = dose: 400.0 mg/kg/injection, schedule: Q01DX001 (ip), vehicle: saline with Tween-80
[3] = dose: 200.0 mg/kg/injection, schedule: Q01DX001 (ip), vehicle: saline with Tween-80
[4] = dose: 200.0 mg/kg/injection, schedule: Q01DX009 (ip), vehicle: saline with Tween-80
[5] = dose: 400.0 mg/kg/injection, schedule: Q01DX009 (ip), vehicle: saline with Tween-80

SMILES: CCOC(=O)NC1=C(N2CC2C)C(=O)C(NC(=O)OCC)=C(N2CC2C)C1=O (stereo not given)
- T/C (dose: 6.25 mg/kg/injection, schedule: Q01DX001 (ip), vehicle: Klucel (hydroxypropylcellulose) (HPC)): 126 % of control
- T/C (dose: 12.5 mg/kg/injection, schedule: Q01DX001 (ip), vehicle: Klucel (hydroxypropylcellulose) (HPC)): 130 % of control
- T/C (dose: 25.0 mg/kg/injection, schedule: Q01DX001 (ip), vehicle: Klucel (hydroxypropylcellulose) (HPC)): 141 % of control
- survivor count (dose: 50.0 mg/kg/injection, schedule: Q01DX001 (ip), vehicle: Klucel (hydroxypropylcellulose) (HPC)): 2 of 6
- survivor count (dose: 100.0 mg/kg/injection, schedule: Q01DX001 (ip), vehicle: Klucel (hydroxypropylcellulose) (HPC)): 0 of 6

SMILES: O/N=C1\CCCc2ccc(F)cc21
- T/C [1]: 130 % of control

SMILES: O=C(c1ccccc1)C(Cl)C(=O)c1ccccc1
- survivor count [2]: 2 of 6

SMILES: CCNCc1cc(Nc2cc(C)nc(/N=C(\N)Nc3ccc(Cl)c(Cl)c3)n2)ccc1OC
- T/C (dose: 50.0 mg/kg/injection, schedule: Q04DX003 (ip), vehicle: Klucel (hydroxypropylcellulose) (HPC)): 131 % of control
- survivor count (dose: 120.0 mg/kg/injection, schedule: Q04DX003 (ip), vehicle: Klucel (hydroxypropylcellulose) (HPC)): 0 of 6

SMILES: CCCSc1ccc([N+](=O)[O-])cc1
- survivor count (dose: 100.0 mg/kg/injection, schedule: Q04DX002 (ip), vehicle: saline with Tween-80): 6 of 6

SMILES: CC(=O)N(N=Nc1ccccc1)c1cccc2ccccc12
- T/C (dose: 50.0 mg/kg/injection, schedule: Q01DX009 (ip), vehicle: Klucel (hydroxypropylcellulose) (HPC)): 131 % of control
- survivor count (dose: 75.0 mg/kg/injection, schedule: Q01DX009 (ip), vehicle: Klucel (hydroxypropylcellulose) (HPC)): 3 of 6
- survivor count (dose: 100.0 mg/kg/injection, schedule: Q01DX009 (ip), vehicle: Klucel (hydroxypropylcellulose) (HPC)): 3 of 6 and 6 of 6
- survivor count (dose: 200.0 mg/kg/injection, schedule: Q01DX009 (ip), vehicle: Klucel (hydroxypropylcellulose) (HPC)): 2 of 6
- survivor count (dose: 200.0 mg/kg/injection, schedule: Q04DX003 (ip), vehicle: Klucel (hydroxypropylcellulose) (HPC)): 5 of 6
- survivor count (dose: 400.0 mg/kg/injection, schedule: Q01DX009 (ip), vehicle: Klucel (hydroxypropylcellulose) (HPC)): 2 of 6

SMILES: CC(C)(C)[Si](OC(=O)N(CCCl)CCCl)(c1ccccc1)c1ccccc1
- T/C [3]: 148 % of control
- survivor count [3]: 5 of 6
- survivor count [2]: 2 of 6

SMILES: O=C(CCCCC(=O)Nc1ccc(C2=NCCN2)cc1)Nc1ccc(C2=NCCN2)cc1
- T/C (dose: 8.3 mg/kg/injection, schedule: Q01DX009 (ip), vehicle: Klucel (hydroxypropylcellulose) (HPC)): 125 % of control
- T/C (dose: 12.0 mg/kg/injection, schedule: Q01DX009 (ip), vehicle: Klucel (hydroxypropylcellulose) (HPC)): 130 % of control
- T/C (dose: 19.0 mg/kg/injection, schedule: Q01DX009 (ip), vehicle: Klucel (hydroxypropylcellulose) (HPC)): 127 % of control
- T/C (dose: 29.0 mg/kg/injection, schedule: Q01DX009 (ip), vehicle: Klucel (hydroxypropylcellulose) (HPC)): 127 % of control
- T/C (dose: 45.0 mg/kg/injection, schedule: Q01DX009 (ip), vehicle: Klucel (hydroxypropylcellulose) (HPC)): 136 % of control
- T/C (dose: 132.0 mg/kg/injection, schedule: Q01DX009 (ip), vehicle: Klucel (hydroxypropylcellulose) (HPC)): 136 % of control
- T/C (dose: 264.0 mg/kg/injection, schedule: Q04DX003 (ip), vehicle: Klucel (hydroxypropylcellulose) (HPC)): 140 % of control

SMILES: O=C(/C=C/c1ccccc1)N1CCOCC1
- survivor count (dose: 25.0 mg/kg/injection, schedule: Q04DX003 (ip), vehicle: saline): 6 of 6

SMILES: CN(C)CC(=O)c1ccc(O)c(O)c1
- T/C (dose: 200.0 mg/kg/injection, schedule: Q01DX010 (ip), vehicle: saline): 140 % of control
- T/C (dose: 450.0 mg/kg/injection, schedule: Q01DX010 (ip), vehicle: saline): 127 % of control
- T/C (dose: 675.0 mg/kg/injection, schedule: Q01DX010 (ip), vehicle: saline): 140 % of control

SMILES: COC12C(COC(N)=O)C3=C(C(=O)C(C)=C(N4CC4)C3=O)N1CC1NC12 (stereo not given)
- survivor count (dose: 0.14 mg/kg/injection, schedule: Q04DX003 (ip), vehicle: saline with Tween-80): 3 of 6
- survivor count (dose: 1.1 mg/kg/injection, schedule: Q04DX003 (ip), vehicle: saline with Tween-80): 1 of 6
- survivor count (dose: 1.7 mg/kg/injection, schedule: Q04DX003 (ip), vehicle: saline with Tween-80): 5 of 6
- survivor count (dose: 2.5 mg/kg/injection, schedule: Q04DX003 (ip), vehicle: saline with Tween-80): 6 of 6

SMILES: COc1cc(OC)c2c(O)c3c(c(-c4ccc5cc6c(c(O)c5c4O)C(=O)CC(C)(O)C6)c2c1)CC(C)OC3C (stereo not given)
- survivor count (dose: 3.12 mg/kg/injection, schedule: Q01DX009 (ip), vehicle: olive oil, sesame oil, peanut oil): 5 of 6
- survivor count (dose: 6.25 mg/kg/injection, schedule: Q01DX009 (ip), vehicle: olive oil, sesame oil, peanut oil): 6 of 6
- survivor count (dose: 12.5 mg/kg/injection, schedule: Q01DX009 (ip), vehicle: olive oil, sesame oil, peanut oil): 6 of 6
- survivor count (dose: 25.0 mg/kg/injection, schedule: Q01DX009 (ip), vehicle: olive oil, sesame oil, peanut oil): 5 of 6
- survivor count (dose: 50.0 mg/kg/injection, schedule: Q01DX009 (ip), vehicle: olive oil, sesame oil, peanut oil): 6 of 6

SMILES: CCNC(C)(C)C(=O)c1ccc(Cl)s1
- survivor count [4]: 6 of 6
- survivor count [5]: 4 of 6

SMILES: COc1ccc(Br)cc1/C=C/[N+](=O)[O-]
- survivor count [1]: 0 of 6
- survivor count [4]: 2 of 6

SMILES: COC(=O)CC(C)Cc1ccc(OC)c(OC)c1 (stereo not given)
- T/C [5]: 125 % of control

SMILES: COc1cc(C=Nc2ccc3c(c2)Cc2ccccc2-3)ccc1O
- survivor count (dose: 100.0 mg/kg/injection, schedule: Q04DX003 (ip), vehicle: saline sonified): 6 of 6

SMILES: C1CCC2C[N-]CCC2C1.C1CCC2C[N-]CCC2C1.C1CCC2C[N-]CCC2C1.C1CCC2C[N-]CCC2C1.[Cl][Rh][Cl] (stereo not given)
- T/C (dose: 0.29 mg/kg/injection, schedule: Q01DX009 (ip), vehicle: saline): 139 % of control
- T/C (dose: 0.44 mg/kg/injection, schedule: Q01DX009 (ip), vehicle: saline): 133 % of control
- T/C (dose: 0.66 mg/kg/injection, schedule: Q01DX009 (ip), vehicle: saline): 130 % of control
- T/C (dose: 1.0 mg/kg/injection, schedule: Q01DX009 (ip), vehicle: saline): 132 % of control
- T/C (dose: 1.56 mg/kg/injection, schedule: Q01DX009 (ip), vehicle: saline with Tween-80): 144 % of control
- T/C (dose: 1.78 mg/kg/injection, schedule: Q01DX009 (ip), vehicle: saline): 136 % of control
- survivor count (dose: 3.12 mg/kg/injection, schedule: Q01DX009 (ip), vehicle: saline with Tween-80): 1 of 6
- T/C (dose: 3.12 mg/kg/injection, schedule: Q04DX003 (ip), vehicle: saline with Tween-80): 140 % of control
- survivor count (dose: 6.25 mg/kg/injection, schedule: Q01DX009 (ip), vehicle: saline with Tween-80): 0 of 6
- T/C (dose: 6.25 mg/kg/injection, schedule: Q04DX003 (ip), vehicle: saline with Tween-80): 125 % of control
- survivor count (dose: 8.0 mg/kg/injection, schedule: Q01DX009 (ip), vehicle: saline): 6 of 6
- survivor count (dose: 12.5 mg/kg/injection, schedule: Q04DX003 (ip), vehicle: saline with Tween-80): 5 of 6
- survivor count (dose: 16.0 mg/kg/injection, schedule: Q01DX009 (ip), vehicle: saline): 6 of 6
- survivor count (dose: 32.0 mg/kg/injection, schedule: Q01DX009 (ip), vehicle: saline): 0 of 6

SMILES: C=CCCCCC/C=C/CCCCCC
- survivor count (dose: 300.0 mg/kg/injection, schedule: Q01DX010 (ip), vehicle: saline with Tween-80): 5 of 6
